Measured values from the supplement of paper PMC10849652.
Some of the results follow.

Sequences of proteins named here, by UniProt entry; tags and fusion partners are left off. A change or cut given only in a name is not applied to a line headed by its entry.
UniProt Q12767: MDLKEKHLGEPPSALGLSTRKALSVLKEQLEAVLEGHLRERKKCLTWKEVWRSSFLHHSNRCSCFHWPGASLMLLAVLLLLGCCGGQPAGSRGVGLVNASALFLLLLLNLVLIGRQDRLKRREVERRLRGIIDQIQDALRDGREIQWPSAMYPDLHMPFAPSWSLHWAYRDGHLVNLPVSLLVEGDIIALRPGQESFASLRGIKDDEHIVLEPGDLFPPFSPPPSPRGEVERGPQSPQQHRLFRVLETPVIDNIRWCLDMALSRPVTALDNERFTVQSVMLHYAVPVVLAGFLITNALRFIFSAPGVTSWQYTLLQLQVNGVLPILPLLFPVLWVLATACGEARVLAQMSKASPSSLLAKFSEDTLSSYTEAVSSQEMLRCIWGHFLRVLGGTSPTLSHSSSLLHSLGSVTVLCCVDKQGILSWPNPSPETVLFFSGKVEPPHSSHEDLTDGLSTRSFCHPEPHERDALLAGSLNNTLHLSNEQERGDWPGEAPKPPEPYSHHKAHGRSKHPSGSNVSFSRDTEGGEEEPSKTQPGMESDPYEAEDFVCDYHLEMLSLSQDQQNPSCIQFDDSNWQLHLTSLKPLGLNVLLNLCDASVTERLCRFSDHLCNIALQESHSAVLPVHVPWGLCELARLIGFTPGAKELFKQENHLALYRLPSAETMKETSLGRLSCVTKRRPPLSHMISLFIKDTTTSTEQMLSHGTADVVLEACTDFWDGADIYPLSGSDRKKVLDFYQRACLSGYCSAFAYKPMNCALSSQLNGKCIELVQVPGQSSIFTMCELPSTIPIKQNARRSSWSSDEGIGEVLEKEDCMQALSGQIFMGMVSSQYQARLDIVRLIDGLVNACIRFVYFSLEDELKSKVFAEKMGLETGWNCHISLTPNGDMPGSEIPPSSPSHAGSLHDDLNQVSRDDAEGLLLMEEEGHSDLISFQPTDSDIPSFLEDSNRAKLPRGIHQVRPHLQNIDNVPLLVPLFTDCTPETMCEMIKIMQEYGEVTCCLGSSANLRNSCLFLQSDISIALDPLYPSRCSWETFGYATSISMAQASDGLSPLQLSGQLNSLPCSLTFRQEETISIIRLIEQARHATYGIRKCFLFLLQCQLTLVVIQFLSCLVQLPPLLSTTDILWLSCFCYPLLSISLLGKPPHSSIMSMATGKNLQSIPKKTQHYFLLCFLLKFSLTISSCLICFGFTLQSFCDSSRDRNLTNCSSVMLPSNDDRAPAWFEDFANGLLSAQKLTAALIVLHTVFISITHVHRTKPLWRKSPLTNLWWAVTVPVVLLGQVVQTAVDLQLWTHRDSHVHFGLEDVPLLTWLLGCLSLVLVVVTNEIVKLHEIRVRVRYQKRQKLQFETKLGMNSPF
UniProt Q96Q45: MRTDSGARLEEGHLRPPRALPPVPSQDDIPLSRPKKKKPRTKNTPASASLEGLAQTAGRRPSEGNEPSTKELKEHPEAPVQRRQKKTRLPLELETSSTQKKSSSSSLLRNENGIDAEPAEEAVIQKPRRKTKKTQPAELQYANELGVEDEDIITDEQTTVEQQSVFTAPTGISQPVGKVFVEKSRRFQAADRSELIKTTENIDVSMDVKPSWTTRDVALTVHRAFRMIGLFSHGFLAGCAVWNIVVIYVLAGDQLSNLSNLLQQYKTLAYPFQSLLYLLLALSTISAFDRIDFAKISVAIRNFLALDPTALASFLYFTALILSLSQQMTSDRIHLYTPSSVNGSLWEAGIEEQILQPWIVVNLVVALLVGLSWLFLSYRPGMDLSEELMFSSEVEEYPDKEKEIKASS
UniProt Q9BRR3: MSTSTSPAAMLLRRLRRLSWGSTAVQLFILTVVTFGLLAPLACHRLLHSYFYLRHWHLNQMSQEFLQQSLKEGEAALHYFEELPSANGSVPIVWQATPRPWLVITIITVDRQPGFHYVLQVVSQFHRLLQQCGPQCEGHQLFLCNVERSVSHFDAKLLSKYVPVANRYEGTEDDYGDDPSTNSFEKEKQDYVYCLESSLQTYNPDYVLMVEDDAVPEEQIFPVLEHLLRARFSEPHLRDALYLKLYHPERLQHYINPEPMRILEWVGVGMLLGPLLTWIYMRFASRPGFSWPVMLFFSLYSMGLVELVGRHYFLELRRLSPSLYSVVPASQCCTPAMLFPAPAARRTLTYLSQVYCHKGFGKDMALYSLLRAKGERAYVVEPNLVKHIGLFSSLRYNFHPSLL
UniProt Q2T9K0: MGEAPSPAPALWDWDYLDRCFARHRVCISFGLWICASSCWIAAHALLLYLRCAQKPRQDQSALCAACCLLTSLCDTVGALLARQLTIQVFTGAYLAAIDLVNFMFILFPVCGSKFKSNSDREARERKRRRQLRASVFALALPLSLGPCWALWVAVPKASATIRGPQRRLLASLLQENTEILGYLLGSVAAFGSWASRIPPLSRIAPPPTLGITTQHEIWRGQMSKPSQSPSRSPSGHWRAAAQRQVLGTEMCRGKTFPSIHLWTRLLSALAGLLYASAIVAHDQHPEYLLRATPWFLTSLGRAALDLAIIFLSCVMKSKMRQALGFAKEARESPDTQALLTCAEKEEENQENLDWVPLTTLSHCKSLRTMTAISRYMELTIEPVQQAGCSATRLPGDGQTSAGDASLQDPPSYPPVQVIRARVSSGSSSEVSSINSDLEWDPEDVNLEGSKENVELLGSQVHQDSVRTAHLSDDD
UniProt Q9BSE2: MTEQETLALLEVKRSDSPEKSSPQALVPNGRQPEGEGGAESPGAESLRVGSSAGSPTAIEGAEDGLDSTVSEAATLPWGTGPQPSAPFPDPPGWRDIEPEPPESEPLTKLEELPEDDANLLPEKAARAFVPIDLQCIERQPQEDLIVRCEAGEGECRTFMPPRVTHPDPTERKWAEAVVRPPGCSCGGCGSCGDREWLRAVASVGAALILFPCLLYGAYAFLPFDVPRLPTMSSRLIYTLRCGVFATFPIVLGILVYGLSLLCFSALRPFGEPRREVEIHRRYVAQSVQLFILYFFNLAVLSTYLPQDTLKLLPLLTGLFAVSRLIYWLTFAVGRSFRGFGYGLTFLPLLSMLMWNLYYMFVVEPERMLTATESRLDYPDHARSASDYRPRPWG
UniProt P62328: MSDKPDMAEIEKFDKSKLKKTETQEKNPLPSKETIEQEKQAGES
UniProt Q0VDI3: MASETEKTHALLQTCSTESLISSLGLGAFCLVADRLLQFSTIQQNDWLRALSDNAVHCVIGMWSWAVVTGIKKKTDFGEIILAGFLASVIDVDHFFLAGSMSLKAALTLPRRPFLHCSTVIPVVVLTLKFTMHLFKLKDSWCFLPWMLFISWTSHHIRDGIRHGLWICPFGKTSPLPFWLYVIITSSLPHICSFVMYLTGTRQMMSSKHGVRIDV
UniProt Q9NX78: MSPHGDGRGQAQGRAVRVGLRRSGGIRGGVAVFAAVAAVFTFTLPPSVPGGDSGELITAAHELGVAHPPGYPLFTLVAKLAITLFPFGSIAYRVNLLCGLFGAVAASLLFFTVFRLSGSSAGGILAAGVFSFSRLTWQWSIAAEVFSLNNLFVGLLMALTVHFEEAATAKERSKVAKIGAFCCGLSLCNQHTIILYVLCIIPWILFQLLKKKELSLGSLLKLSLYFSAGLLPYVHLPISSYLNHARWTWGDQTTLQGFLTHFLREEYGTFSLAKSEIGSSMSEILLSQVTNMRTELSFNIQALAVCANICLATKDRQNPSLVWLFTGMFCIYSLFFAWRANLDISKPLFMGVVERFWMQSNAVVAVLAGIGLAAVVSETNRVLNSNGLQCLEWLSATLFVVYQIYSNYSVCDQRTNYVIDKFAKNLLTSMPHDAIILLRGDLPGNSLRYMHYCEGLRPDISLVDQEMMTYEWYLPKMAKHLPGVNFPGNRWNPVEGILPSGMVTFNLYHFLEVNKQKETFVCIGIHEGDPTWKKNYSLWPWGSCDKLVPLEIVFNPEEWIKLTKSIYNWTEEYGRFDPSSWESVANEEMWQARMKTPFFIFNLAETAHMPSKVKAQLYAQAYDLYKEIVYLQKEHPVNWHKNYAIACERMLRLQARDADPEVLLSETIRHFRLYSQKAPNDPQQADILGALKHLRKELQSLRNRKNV
UniProt Q96AN5: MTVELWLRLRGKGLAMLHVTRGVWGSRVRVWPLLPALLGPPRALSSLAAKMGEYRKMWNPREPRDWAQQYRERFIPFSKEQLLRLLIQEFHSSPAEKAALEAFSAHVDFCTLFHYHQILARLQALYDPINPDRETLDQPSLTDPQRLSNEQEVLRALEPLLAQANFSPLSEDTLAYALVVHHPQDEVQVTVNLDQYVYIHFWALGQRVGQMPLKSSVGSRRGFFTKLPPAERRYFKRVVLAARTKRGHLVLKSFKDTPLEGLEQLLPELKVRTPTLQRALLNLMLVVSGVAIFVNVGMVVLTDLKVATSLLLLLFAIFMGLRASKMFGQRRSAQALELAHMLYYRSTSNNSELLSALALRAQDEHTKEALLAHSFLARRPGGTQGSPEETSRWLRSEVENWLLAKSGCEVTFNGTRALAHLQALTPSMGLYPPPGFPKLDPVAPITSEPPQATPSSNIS
UniProt Q8N2U0: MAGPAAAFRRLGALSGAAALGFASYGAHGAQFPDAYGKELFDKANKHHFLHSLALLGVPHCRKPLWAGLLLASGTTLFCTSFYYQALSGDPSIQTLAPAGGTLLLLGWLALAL
UniProt Q9P2C4: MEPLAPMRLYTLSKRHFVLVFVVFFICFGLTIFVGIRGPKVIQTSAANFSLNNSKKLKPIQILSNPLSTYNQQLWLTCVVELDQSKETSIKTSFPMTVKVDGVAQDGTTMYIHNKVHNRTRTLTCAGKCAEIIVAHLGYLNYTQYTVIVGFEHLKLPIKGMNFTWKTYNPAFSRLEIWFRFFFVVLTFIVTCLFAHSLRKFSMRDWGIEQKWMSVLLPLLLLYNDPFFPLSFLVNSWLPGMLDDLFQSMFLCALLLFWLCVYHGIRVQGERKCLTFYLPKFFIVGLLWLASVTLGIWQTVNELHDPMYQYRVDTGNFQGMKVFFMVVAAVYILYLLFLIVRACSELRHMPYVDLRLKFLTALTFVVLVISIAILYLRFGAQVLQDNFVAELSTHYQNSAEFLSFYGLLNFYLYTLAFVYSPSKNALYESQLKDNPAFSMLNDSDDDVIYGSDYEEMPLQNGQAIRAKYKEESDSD
UniProt Q8NE00: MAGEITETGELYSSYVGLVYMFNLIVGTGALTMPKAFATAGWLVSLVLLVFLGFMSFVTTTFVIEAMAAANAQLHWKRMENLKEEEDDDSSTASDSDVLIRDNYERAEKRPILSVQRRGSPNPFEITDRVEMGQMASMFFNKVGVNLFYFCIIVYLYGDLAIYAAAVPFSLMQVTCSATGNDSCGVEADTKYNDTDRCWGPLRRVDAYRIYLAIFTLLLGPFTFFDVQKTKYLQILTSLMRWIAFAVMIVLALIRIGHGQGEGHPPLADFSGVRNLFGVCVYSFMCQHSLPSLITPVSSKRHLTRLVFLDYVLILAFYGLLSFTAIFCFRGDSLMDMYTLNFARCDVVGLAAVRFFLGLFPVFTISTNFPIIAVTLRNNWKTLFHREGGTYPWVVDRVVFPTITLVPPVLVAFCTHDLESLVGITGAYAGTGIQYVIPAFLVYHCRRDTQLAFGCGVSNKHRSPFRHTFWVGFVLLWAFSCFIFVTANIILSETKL
UniProt Q9BXS4: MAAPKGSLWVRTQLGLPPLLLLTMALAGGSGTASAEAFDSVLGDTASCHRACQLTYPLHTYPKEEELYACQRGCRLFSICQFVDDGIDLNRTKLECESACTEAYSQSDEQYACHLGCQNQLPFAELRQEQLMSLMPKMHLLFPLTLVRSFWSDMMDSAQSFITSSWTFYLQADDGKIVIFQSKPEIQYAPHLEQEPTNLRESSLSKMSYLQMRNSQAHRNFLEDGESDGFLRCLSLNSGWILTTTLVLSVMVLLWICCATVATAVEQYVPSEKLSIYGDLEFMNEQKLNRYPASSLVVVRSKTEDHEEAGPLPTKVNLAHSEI
UniProt O94876, whole entry, looked up: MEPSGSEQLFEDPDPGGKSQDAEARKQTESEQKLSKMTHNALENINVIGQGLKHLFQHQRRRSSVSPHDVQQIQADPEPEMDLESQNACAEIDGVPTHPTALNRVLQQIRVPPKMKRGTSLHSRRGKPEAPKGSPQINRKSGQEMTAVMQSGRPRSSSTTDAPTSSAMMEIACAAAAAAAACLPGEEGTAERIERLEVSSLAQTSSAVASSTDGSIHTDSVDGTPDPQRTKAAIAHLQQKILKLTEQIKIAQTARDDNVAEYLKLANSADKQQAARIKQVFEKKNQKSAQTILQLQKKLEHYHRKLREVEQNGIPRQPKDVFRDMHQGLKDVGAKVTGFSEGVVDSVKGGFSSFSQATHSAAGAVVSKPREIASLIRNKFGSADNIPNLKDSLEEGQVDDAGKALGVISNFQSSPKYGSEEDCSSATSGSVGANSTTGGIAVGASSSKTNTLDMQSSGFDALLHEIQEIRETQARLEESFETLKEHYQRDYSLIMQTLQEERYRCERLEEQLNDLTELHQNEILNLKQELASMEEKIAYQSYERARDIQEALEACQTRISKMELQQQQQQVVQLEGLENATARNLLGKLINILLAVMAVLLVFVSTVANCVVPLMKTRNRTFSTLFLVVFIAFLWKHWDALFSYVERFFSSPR

Key:
Experiment in all cases: log2 fold change, soluble protein after heating vs DMSO (PISA); higher = thermal stabilisation; K562 cells, 10 uM, 30 min; active = over 0.2 and 3.5 SD of the protein, either way, in both replicates (recomputed)
[1] = compound: CC1=C(C=C(C=C1)NC(=O)C2=CC(=CC=C2)C(C)(C)C#N)NC3=CC4=C(C=C3)N=CN(C4=O)C
Method in brief: (§1)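 K562 cells at 2×10^6 cells/mL were given 10 μM compound for 30 min. Aliquots then went through 3 min of heating across 48°C-58°C, were pooled, and were extracted in PBS with 0.5% NP-40 at 4°C, and the supernatant after 21,000xg for 90 min was quantified by TMTpro 16plex LC-MS/MS with channel sums equalised. Thermal stability relative to control samples, from duplicates, is given as log2 fold change.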

Nexturastat A = compound: CCCCN(Cc1ccc(C(=O)NO)cc1)C(=O)Nc1ccccc1 [Nexturastat A]
Method in brief: as §1

[2] = compound: CCCc1cc(C)[nH]c(=O)c1CNC(=O)c1cc(-c2ccnc(N3CCN(C)CC3)c2)cc2c1cnn2C(C)C
Method in brief: as §1

givinostat = compound: CCN(CC)Cc1ccc2cc(COC(=O)Nc3ccc(C(=O)NO)cc3)ccc2c1 [givinostat]
Method in brief: as §1

barasertib = compound: CCN(CCCOc1ccc2c(Nc3cc(CC(=O)Nc4cccc(F)c4)[nH]n3)ncnc2c1)CCOP(=O)(O)O [barasertib]
Method in brief: as §1

[3] = compound: CC[C@H](C)N1C=C(C2=C(C=C(C=C21)C3=CN=C(C=C3)N4CCNCC4)C(=O)NCC5=C(C=C(NC5=O)C)C)C
Method in brief: as §1

epoxomicin = compound: CC[C@H](C)[C@@H](C(=O)N[C@@H]([C@@H](C)O)C(=O)N[C@@H](CC(C)C)C(=O)[C@]1(CO1)C)NC(=O)[C@H]([C@@H](C)CC)N(C)C(=O)C [epoxomicin]
Method in brief: as §1

[4] = compound: CCn1c(C(=O)N(C2CC2)C2CC2)cc2c3c(ncn3C)c(Nc3cc(C)n(C)n3)nc21
Method in brief: as §1

[5] = compound: CCn1cc(-c2ccnc3[nH]c(-c4cccc(CN(C)C)c4)cc23)c(-c2ccc(NC(=O)N(C)C)cc2)n1
Method in brief: as §1

rosiglitazone = compound: CN(CCOC1=CC=C(C=C1)C[C@H]2C(=O)NC(=O)S2)C3=CC=CC=N3 (racemic) [rosiglitazone]
Method in brief: as §1

[6] = compound: CN1C2=C(C3=C1C(=O)N(N=C3)CC4=CC(=CC=C4)N)SC(=C2)S(=O)C
Method in brief: as §1

[7] = compound: CN1CCC(CNc2ccc3ncc(-c4cccc(OC(F)(F)F)c4)n3n2)CC1
Method in brief: as §1

[8] = compound: CC1=NC(=CC=C1)C2=C(N=C(N2)C(C)(C)C)C3=CC4=NC=CN=C4C=C3
Method in brief: as §1

[9] = compound: CC1=C(C=C(C=C1)NC(=O)C2=CC(=CC=C2)N(C)C)NC(=O)C3=CC=C(C=C3)O
Method in brief: as §1

[10] = compound: CC1=CC=C(C=C1)SC2=C3C=C(SC3=CN=C2)C(=O)N
Method in brief: as §1

vemurafenib = compound: CCCS(=O)(=O)Nc1ccc(F)c(C(=O)c2c[nH]c3ncc(-c4ccc(Cl)cc4)cc23)c1F [vemurafenib]
Method in brief: as §1

[11] = compound: CCCS(=O)(=O)Nc1ccc(F)c(C(=O)c2c[nH]c3ncc(Cl)cc23)c1F
Method in brief: as §1

[12] = compound: CC[C@@H]1C(=O)N(C)c2cnc(Nc3ccc(C(=O)NC4CCN(C)CC4)cc3OC)nc2N1C1CCCC1
Method in brief: as §1

volasertib = compound: CC[C@@H]1C(=O)N(C)c2cnc(Nc3ccc(C(=O)N[C@H]4CC[C@H](N5CCN(CC6CC6)CC5)CC4)cc3OC)nc2N1C(C)C [volasertib]
Method in brief: as §1

[13] = compound: CN(C)CC(=O)Nc1ccc2[nH]c(=O)c3ccccc3c2c1
Method in brief: as §1

Measured: log2 fold change

TMEM159 isoform 2 (UniProt Q96B96)
inactive: [1] -0.095 | Nexturastat A 0.057 | [2] 0.149 | givinostat -0.024 | barasertib 0.196 | [3] -0.318 | epoxomicin -0.088 | [4] 0.005 | [5] 0.139 | rosiglitazone 0.017 | [6] -0.039 | [7] 0.007

TMEM94 isoform 2 (UniProt Q12767)
inactive: givinostat 0.19 | [4] -0.277 | [6] -0.023

TMTC4 isoform 3 (UniProt Q5T4D3)
inactive: [8] 0.021 | barasertib -0.087 | rosiglitazone -0.025 | [6] -0.108

TMEM101 (UniProt Q96IK0)
inactive: [9] 0.013 | [10] 0.068 | [8] 0.049 | vemurafenib -0.004 | [11] 0.098 | [2] 0.013 | givinostat 0.013 | barasertib 0.05 | [12] 0.033 | volasertib 0.041 | [3] 0.106 | [4] 0.03 | [5] -0.036 | [13] 0.004 | rosiglitazone 0.013 | [6] -0.058 | [7] -0.156

TMC6 (UniProt Q7Z403)
inactive: [9] -0.116 | [10] -0.319 | [8] -0.358 | vemurafenib 0.039 | [11] 0.068 | [2] -0.001 | givinostat 0.064 | [12] 0.011 | volasertib -0.175 | [3] -0.216 | [4] -0.138 | [5] 0.109 | [13] -0.031 | [6] 0.158 | [7] -0.184

TMEM35B (UniProt Q8NCS4)
inactive: [8] 0.011 | vemurafenib 0.167 | [2] -0.105 | givinostat 0.024 | barasertib 0.049 | [3] -0.065 | [4] -0.168 | [5] -0.075 | [13] 0.068 | rosiglitazone 0.108 | [6] 0.006 | [7] 0.044

TMED8 (UniProt Q6PL24)
inactive: [9] -0.101 | [10] 0.006 | [8] 0.164 | vemurafenib 0.004 | [11] -0.006 | [2] 0.086 | givinostat 0.084 | barasertib 0.113 | [12] -0.019 | volasertib -0.155 | [3] -0.107 | [4] 0.033 | [5] -0.071 | [13] 0.064 | rosiglitazone 0.095 | [6] 0.075 | [7] -0.25

TNFAIP3 (UniProt P21580)
inactive: [9] 0.106 | [10] 0.006 | [8] -0.057 | Nexturastat A -0.001 | vemurafenib 0.028 | [11] 0.134 | [2] 0.016 | givinostat 0.021 | barasertib -0.155 | volasertib -0.045 | [3] 0.047 | epoxomicin -0.081 | [4] 0.022 | [5] 0.019 | [13] -0.039 | rosiglitazone 0.017 | [7] -0.04

TMEM237 isoform 3 (UniProt Q96Q45)
inactive: [1] 0.008 | Nexturastat A 0.04 | vemurafenib -0.174 | [2] 0.216 | givinostat -0.209 | [12] 0.144 | epoxomicin -0.105 | [4] 0.019 | [5] 0.301 | [13] 0.105 | [7] -0.03

TMEM120B (UniProt A0PK00)
inactive: [9] 0.008 | [8] 0.074 | vemurafenib 0.104 | [2] 0.001 | givinostat 0.068 | [3] 0.202 | [4] 0.138 | [5] 0.108 | [13] 0.075 | [6] -0.136 | [7] 0.088

TMPO (UniProt G5E972)
inactive: [2] 0.108 | givinostat 0.066 | [4] -0.053 | [5] -0.067 | [7] -0.002

TMEM246 (UniProt Q9BRR3)
inactive: givinostat -0.047 | [4] 0.126

TMEM44 (UniProt Q2T9K0)
inactive: [8] 0.056 | givinostat 0.089 | [3] 0.192 | [4] 0.003

TM2D1 (UniProt Q9BX74)
inactive: [1] -0.026 | [6] -0.022

TMEM79 (UniProt Q9BSE2)
inactive: barasertib 0 | [3] -0.09 | rosiglitazone -0.009

TNFAIP1 (UniProt Q13829)
inactive: [9] 0.051 | [10] -0.051 | [8] 0.094 | Nexturastat A 0.042 | vemurafenib -0.056 | [11] -0.095 | [2] -0.061 | givinostat -0.001 | barasertib 0.047 | [12] 0.003 | volasertib 0.023 | [3] 0.034 | epoxomicin 0.022 | [4] 0.04 | [13] 0.136 | rosiglitazone 0 | [6] -0.002

TMSB4X (UniProt P62328)
inactive: [9] 0.073 | [10] -0.231 | [8] -0.846 | Nexturastat A 0.585 | vemurafenib 0.013 | [11] -0.396 | [2] -1.2 | barasertib 0.157 | [12] -0.335 | volasertib 0.138 | [3] -0.47 | epoxomicin -0.292 | [13] -0.18 | rosiglitazone -0.272 | [6] 0.079

TMEM267 (UniProt Q0VDI3)
inactive: [9] 0.034 | [10] -0.078 | [8] 0.011 | vemurafenib -0.28 | [11] -0.19 | givinostat 0.044 | barasertib 0.117 | [12] -0.035 | volasertib -0.06 | [4] -0.056 | [5] -0.14 | [13] -0.123 | rosiglitazone -0.161 | [7] 0.008

TMEM69 (UniProt Q5SWH9)
inactive: [9] 0.026 | [10] -0.006 | [8] 0.036 | [11] 0.01 | [2] -0.147 | givinostat -0.018 | barasertib -0.092 | [12] 0.012 | volasertib -0.085 | [3] 0.015 | [4] 0.052 | [5] -0.024 | rosiglitazone 0.008 | [7] -0.017

TMEM131 (UniProt Q92545)
inactive: [1] -0.046 | givinostat -0.018 | [4] -0.109 | [5] 0.175 | [7] -0.28

TMEM260 (UniProt Q9NX78)
inactive: [8] 0.134 | [2] -0.011 | givinostat 0.079 | [4] -0.189 | [6] 0.165

TMEM175 (UniProt Q9BSA9)
inactive: [10] -0.101 | [11] -0.07 | givinostat 0.081 | [12] 0.128 | volasertib 0.152 | [4] 0.039 | [6] -0.013

TMEM50A (UniProt O95807)
inactive: [10] 0.068 | [8] -0.142 | Nexturastat A -0.009 | vemurafenib 0.026 | [11] -0.026 | barasertib -0.241 | volasertib 0.01 | [3] -0.294 | epoxomicin 0.161 | [13] -0.032 | rosiglitazone 0.144

TMEM41B (UniProt Q5BJD5)
inactive: [9] -0.079 | [10] -0.017 | [8] 0.058 | Nexturastat A -0.087 | vemurafenib 0.004 | [11] -0.083 | [2] -0.074 | givinostat 0.042 | barasertib -0.049 | [12] -0.039 | volasertib -0.12 | [3] -0.061 | epoxomicin -0.197 | [4] 0 | [5] -0.043 | [13] -0.034 | rosiglitazone 0.042 | [6] 0.041 | [7] 0.05

TMEM143 (UniProt Q96AN5)
inactive: [1] 0.219 | [8] -0.009 | [2] -0.136 | givinostat -0.005 | [12] -0.05 | [4] 0.079

TMEM256 (UniProt Q8N2U0)
inactive: givinostat -0.204 | [4] -0.026

TMEM181 (UniProt Q9P2C4)
inactive: [9] 0.081 | [10] 0.05 | [8] -0.082 | vemurafenib 0.049 | [11] -0.011 | [2] 0.115 | givinostat -0.032 | barasertib -0.004 | [12] -0.121 | volasertib -0.026 | [4] 0.011 | [5] -0.07 | [13] -0.023 | rosiglitazone -0.01 | [6] 0.079 | [7] -0.005

TMEM104 (UniProt Q8NE00)
inactive: [9] 0.058 | [10] -0.015 | [8] -0.039 | Nexturastat A -0.046 | [11] -0.173 | [2] -0.126 | givinostat -0.012 | [12] -0.019 | volasertib 0.043 | [3] -0.033 | epoxomicin -0.19 | [5] 0.204 | [6] 0.12 | [7] 0.018

TMEM59 (UniProt Q9BXS4)
inactive: [9] -0.282 | [10] -0.041 | [8] 0.003 | [11] -0.011 | [2] 0.257 | givinostat -0.042 | volasertib -0.107 | [3] -0.029 | [4] 0 | [5] 0.122 | [6] 0.001 | [7] 0.038

TNFAIP2 (UniProt Q03169)
inactive: [1] -0.19 | givinostat 0.323 | barasertib 0.08 | [3] -0.485 | [4] -0.186 | rosiglitazone 0.043 | [6] 0.086

TMEM273 isoform 2 (UniProt Q5T292)
inactive: vemurafenib -0.026 | [3] -0.085 | [13] -0.086

TLE5 isoform 2 (UniProt Q08117)
inactive: [9] 0.093 | [10] 0.06 | vemurafenib 0.018 | [11] 0.065 | [2] 0.355 | [12] 0.092 | volasertib 0.022 | [3] -0.028 | [5] 0.017 | [13] -0.015 | [6] -0.063 | [7] 0.092

TMEM127 (UniProt O75204)
inactive: givinostat 0.028 | [3] -0.157 | [4] 0.077

TMCC1 (UniProt O94876)
inactive: [1] -0.019 | Nexturastat A 0.097 | [2] 0.008 | epoxomicin 0 | [5] 0.136 | [6] 0.167 | [7] -0.024

TMCC2 (UniProt O75069)
inactive: [3] 0.149 | [6] -0.157

Three consecutive entries from above, for reference:
TNFAIP2 (UniProt Q03169)
inactive: [1] -0.19 | givinostat 0.323 | barasertib 0.08 | [3] -0.485 | [4] -0.186 | rosiglitazone 0.043 | [6] 0.086

TMEM273 isoform 2 (UniProt Q5T292)
inactive: vemurafenib -0.026 | [3] -0.085 | [13] -0.086

TLE5 isoform 2 (UniProt Q08117)
inactive: [9] 0.093 | [10] 0.06 | vemurafenib 0.018 | [11] 0.065 | [2] 0.355 | [12] 0.092 | volasertib 0.022 | [3] -0.028 | [5] 0.017 | [13] -0.015 | [6] -0.063 | [7] 0.092
